Measured data: PubChem BioAssay AID686943 (Drosophila RNAi Screening Center, 2013)

Purpose: 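Fly genes whose loss alters ERK activation after insulin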 (primary screen)
Cell system: Drosophila S2R+ haemocyte-like cells expressing YFP-tagged ERK (Rolled)
Reagent: long dsRNA against Drosophila genes
Treatment: insulin stimulation versus unstimulated cells; dose and duration not given
Read-out: 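Per-plate z-scores of phospho-ERK immunostaining normalised to YFP-tagged ERK, measured with and without insulin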
Scale: replicate 1, z-score of dpERK with insulin and replicate 2, z-score of dpERK with insulin: higher = more active ERK per ERK-YFP after insulin; replicate 1, z-score of dpERK under basal conditions: higher = more basal active ERK per ERK-YFP
In all, the deposit lists about 23,000 reagents; shown is a random part of those that have a named target and a result. 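Extra replicates exist only for a retested subset of genes; insulin dose and duration not given; both raised and lowered dpERK matter.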 Names joined by + are all predicted targets of the reagent. Further read-outs or replicates are left out here. Not given: the amount of reagent, the time to read-out.

| Target gene | DRSC id | replicate 1, z-score of dpERK with insulin | replicate 2, z-score of dpERK with insulin | replicate 1, z-score of dpERK under basal conditions |
| --- | --- | --- | --- | --- |
| comm3 | DRSC09993 | 0.85 | -0.39 | -0.56 |
| comm3 | DRSC09994 | -0.27 | 0.06 | -0.81 |
| comm3 | DRSC09995 | 0.05 | 1.4 | -1.05 |
| CG1979 | DRSC12495 | -0.04 | -0.06 | 0.76 |
| yellow-h | DRSC17141 | -0.2 | 0.41 | -0.31 |
| dan | DRSC14406 | -0.62 | -0.45 | -0.6 |
| Eig71Ec | DRSC11150 | 1.09 | 0.55 | -0.45 |
| CG14669 | DRSC12065 | -0.74 | -2.47 | -3.95 |
| CG14669 | DRSC12067 | -0.97 | 0.09 | 0.42 |
| CG14669 | DRSC12068 | 1.04 | 0.66 | -0.01 |
| CG14669 | DRSC12255 | 1.55 | 1.87 | 0.54 |
| PIG-S | DRSC14643 | -0.34 | -0.31 | 0.52 |
| PIG-S | DRSC15388 | 0.7 | 0.61 | -0.19 |
| PIG-S | DRSC15952 | 0.24 | 0.2 | -0.96 |

Next part (2 carried over from the part before).
| Target gene | DRSC id | replicate 1, z-score of dpERK with insulin | replicate 2, z-score of dpERK with insulin | replicate 1, z-score of dpERK under basal conditions |
| --- | --- | --- | --- | --- |
| PIG-S | DRSC15388 | 0.7 | 0.61 | -0.19 |
| PIG-S | DRSC15952 | 0.24 | 0.2 | -0.96 |
| CG31704 | DRSC22118 | -1.74 | -3.89 | -0.05 |
| Tsp42Eq | DRSC06180 | 0.25 | 0.41 | 0.11 |
| CG3795 | DRSC18593 | 0.74 | 0.49 | -0.15 |
| CG30385 | DRSC06031 | 1.77 | 0.52 | 0.07 |
| CG14958 | DRSC08417 | -0.84 | -1.36 | -0.86 |
| Tom7 | DRSC05135 | -0.25 | 0 | 1.1 |
| Tom7 | DRSC07113 | -0.25 | 0.03 | 0.8 |
| Ctf4 | DRSC06380 | 0.2 | 0.47 | 0.68 |
| CG18477 + CG31780 | DRSC01955 | -0.42 | -0.24 | -2.3 |
